The data set in a line: general procedure: peptide synthesis; chlorotrityl chloride resin. The note with it: whole synthesis.

These results are taken from patent US10508140B2 (CAREGEN CO., LTD., priority 2016, dated 2019).

No end group written: not given here.

As to WKWRSADTL, the crude mass worked out at 0.73 g. Moreover, the crude yield (scale of the general procedure 700 mg resin) was determined as 93.1%.
